According to US20180030118A1:
Results are given in words; binding and its absence hold for the method and conditions named. Some results given as binding are weak or reduced against the parent protein; the word gives no strength.

Amino acid sequences for entries named in this document (tags omitted). Residues count along the entry.
UniProt Q1PD50, residues 19-648: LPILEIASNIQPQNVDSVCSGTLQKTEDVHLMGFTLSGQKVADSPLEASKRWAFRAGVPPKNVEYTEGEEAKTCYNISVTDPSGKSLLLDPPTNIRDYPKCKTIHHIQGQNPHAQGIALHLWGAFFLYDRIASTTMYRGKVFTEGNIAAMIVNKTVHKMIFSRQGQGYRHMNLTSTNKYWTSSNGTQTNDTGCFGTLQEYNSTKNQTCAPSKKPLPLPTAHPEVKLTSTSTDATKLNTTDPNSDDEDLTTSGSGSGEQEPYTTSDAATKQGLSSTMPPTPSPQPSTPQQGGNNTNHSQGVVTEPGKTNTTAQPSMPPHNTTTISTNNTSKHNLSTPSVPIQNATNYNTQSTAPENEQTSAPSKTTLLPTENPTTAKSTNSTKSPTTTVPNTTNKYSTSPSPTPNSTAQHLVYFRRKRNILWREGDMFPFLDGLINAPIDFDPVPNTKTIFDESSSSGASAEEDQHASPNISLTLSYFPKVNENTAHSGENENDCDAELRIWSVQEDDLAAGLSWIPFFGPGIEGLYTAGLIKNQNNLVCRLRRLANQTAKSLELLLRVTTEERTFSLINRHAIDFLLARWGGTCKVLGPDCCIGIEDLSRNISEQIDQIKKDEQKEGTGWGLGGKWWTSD

Target: MARV Angola GPe (Marburg virus, strain Angola) (UniProt Q1PD50)
Test: ELISA on coated GPe

B1: muCAN40G1 (antibody, V domains shown)
VH: EVQLQQSGPELVKPGASVKISCRTSGYTFTEYTIHWVKQSRGKSLEWIGGINPNHGGTLYNQKFKVKATLTVDKSSSTAYMELRSLTSEDSAVYYCARFTYDYWGQGTTLTVSS
VL: DIVLTQSPASLAVSLGQRASISCKASQSVDHDGDSYMNWYQQKPGQPPKLLIYATSNLESGIPARFSGSGSGTDFTLNIHPVEEEDAATYYCQQSYEVPLTFGAGTKLELK
**Q.** Which binding does the source give for B1 here?
**A.** binds
